Experimental data published in the supplement of paper PMC8007513.
Some of the results follow. Repeats are few or missing, and single values can be far off.

tested on: Saccharomyces cerevisiae BY4743; test: growth (OD600) with compound + IPBC relative to untreated control; higher = less growth inhibition; details: compound concentration: 133 uM; IPBC concentration: 0.5 ug/ml; 20 h
Protocol: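 NMCCC compounds (133 uM) combined with IPBC (0.5 ug/ml) against Saccharomyces cerevisiae BY4743 in YPD, 96-well plates. Growth was read as OD600 at 20 h and expressed as % of the untreated control. Single pass.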

SMILES	growth [%]
CCc1nnc(NC(=O)CSc2nccn2Cc2ccco2)s1 + CCCCNC(=O)OCC#CI [3-iodo-2-propynyl butylcarbamate (IPBC)]	89.8
CC(NC(=O)CN1CCN(Cc2ccc(Br)s2)CC1)c1ccc(F)cc1 (centres undefined) + CCCCNC(=O)OCC#CI [3-iodo-2-propynyl butylcarbamate (IPBC)]	76.5
Cc1cc2c(N)c(C(N)=O)sc2nc1-c1ccc(F)cc1 + CCCCNC(=O)OCC#CI [3-iodo-2-propynyl butylcarbamate (IPBC)]	109
COc1cccc(NC(=O)C2(n3cnnn3)CCCCC2)c1 + CCCCNC(=O)OCC#CI [3-iodo-2-propynyl butylcarbamate (IPBC)]	80.6
Nc1cc(C2CC2)nn1Cc1ccccc1 + CCCCNC(=O)OCC#CI [3-iodo-2-propynyl butylcarbamate (IPBC)]	111
COC(=O)C1C\C(=N/O1)C2=C[N](C)N=C2C (centres undefined) + CCCCNC(=O)OCC#CI [3-iodo-2-propynyl butylcarbamate (IPBC)]	101
CCN(CC(=O)Nc1ccc(C(=O)Nc2ccc(OC)cc2)cc1)Cc1ccc(Cl)s1 + CCCCNC(=O)OCC#CI [3-iodo-2-propynyl butylcarbamate (IPBC)]	73.2
CCN(CC)CCn1c2ccccc2c2nc(C)sc21 + CCCCNC(=O)OCC#CI [3-iodo-2-propynyl butylcarbamate (IPBC)]	92.1
COc1ccc(CNC(=O)c2cc(C(F)(F)F)nn2C)cc1OC + CCCCNC(=O)OCC#CI [3-iodo-2-propynyl butylcarbamate (IPBC)]	99.9
